Test results published in doi:10.1101/467431.
No constants are given. Whether binding was seen depends on the method and setting.

Tests used:
Experiment in all cases: SEC
[1] = target: Sca2 construct Sca_(1090-1515) (Rickettsia conorii) (UniProt Q92JF7)
[2] = target: Sca2 construct Sca_(869-1060) (Rickettsia conorii) (UniProt Q92JF7)
[3] = target: Sca2 C-terminal fragment, construct Sca_(868-1515) (Rickettsia conorii) (UniProt Q92JF7)

Substance | binding [1] | binding [2] | binding [3]
Sca2 N-terminal fragment, construct Sca_(34-670) (from UniProt Q92JF7 34-670) (domain or fragment) | no binding | no binding | 
Sca2 construct Sca_(34-400) (from UniProt Q92JF7 34-400) (domain or fragment) |  |  | no binding
Sca2 construct Sca_(421-670) (from UniProt Q92JF7 421-670) (domain or fragment) |  |  | no binding
